The target of assay [1] is T1, U…1 (ULT1), full length, GAL4 DNA-BD fusion (pGBKT7) (Arabidopsis thaliana) (UniProt Q8GZA8).
T1 sequence: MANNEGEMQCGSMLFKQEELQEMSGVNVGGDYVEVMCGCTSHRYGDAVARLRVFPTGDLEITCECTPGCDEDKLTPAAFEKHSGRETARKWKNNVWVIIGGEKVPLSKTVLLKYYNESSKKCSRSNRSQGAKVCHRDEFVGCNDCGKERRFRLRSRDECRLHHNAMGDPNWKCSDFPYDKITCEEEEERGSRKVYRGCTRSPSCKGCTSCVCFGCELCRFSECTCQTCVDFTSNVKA
In words: two-hybrid.

Assay [2] has as its target T2, CLF, full length, split-luciferase fusion (CLF-nLUC and CLF-cLUC) (Arabidopsis thaliana), P93831.
T2 chain: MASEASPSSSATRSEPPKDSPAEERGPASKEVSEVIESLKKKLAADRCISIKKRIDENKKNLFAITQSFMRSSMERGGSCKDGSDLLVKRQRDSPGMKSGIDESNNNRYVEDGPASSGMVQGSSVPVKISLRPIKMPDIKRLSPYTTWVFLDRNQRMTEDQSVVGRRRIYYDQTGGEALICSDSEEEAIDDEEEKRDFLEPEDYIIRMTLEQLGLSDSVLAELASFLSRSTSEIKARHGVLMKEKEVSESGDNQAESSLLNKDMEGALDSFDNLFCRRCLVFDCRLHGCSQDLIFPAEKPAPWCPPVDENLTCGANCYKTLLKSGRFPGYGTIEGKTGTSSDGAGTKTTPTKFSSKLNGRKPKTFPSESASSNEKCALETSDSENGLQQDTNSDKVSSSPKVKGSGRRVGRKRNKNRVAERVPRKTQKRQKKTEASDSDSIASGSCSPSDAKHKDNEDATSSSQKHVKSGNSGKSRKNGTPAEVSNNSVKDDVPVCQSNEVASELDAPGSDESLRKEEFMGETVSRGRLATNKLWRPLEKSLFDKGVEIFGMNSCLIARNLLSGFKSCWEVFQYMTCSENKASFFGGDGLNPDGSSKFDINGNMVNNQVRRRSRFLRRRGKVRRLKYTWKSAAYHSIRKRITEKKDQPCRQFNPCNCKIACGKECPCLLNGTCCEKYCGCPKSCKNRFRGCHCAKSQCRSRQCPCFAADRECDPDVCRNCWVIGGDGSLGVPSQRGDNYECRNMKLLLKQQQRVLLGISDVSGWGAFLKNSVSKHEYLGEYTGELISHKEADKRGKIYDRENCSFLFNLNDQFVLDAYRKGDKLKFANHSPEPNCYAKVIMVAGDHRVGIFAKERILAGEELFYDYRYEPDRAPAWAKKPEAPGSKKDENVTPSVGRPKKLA
In words: split reporter. The following applies: remark: other sources report otherwise.

The target of assay [3] is T3, ULT1, full length, split-luciferase fusion (ULT1-nLUC and ULT1-cLUC) (Arabidopsis thaliana) (UniProt Q8GZA8).
T3 sequence: T1 sequence
In words: split reporter.

The target of assay [4] is T4, ULT1-mCherry (XVE:ULT1-mCherry), full length (Arabidopsis thaliana) (UniProt Q8GZA8).
T4 sequence: T1 sequence
In words: FRET or BRET.

Results are given in words; binding and its absence hold for the method and conditions named. For part of these data: In cells and extracts the contact can be indirect. Some entries that bind do so weakly or less than the wild type. For part of these data: Tags and fused reporters may be left off the sequences shown.

This passage reports binding results from paper doi:10.1101/2025.05.06.652514.

B1: EMBRYONIC FLOWER 1 (EMF1), full length, yeast two-hybrid fusion (protein, UniProt Q9LYD9 1-1096)
chain: MGSSIKINSISIDLAGAANEIDMVKCDHFSMRGFVAETRERDLRKCWPFSEESVSLVDQQSYTLPTLSVPKFRWWHCMSCIKDIDAHGPKDCGLHSNSKAIGNSSVIESKSKFNSLTIIDHEKEKKTDIADNAIEEKVGVNCENDDQTATTFLKKARGRPMGASNVRSKSRKLVSPEQVGNNRSKEKLNKPSMDISSWKEKQNVDQAVTTFGSSEIAGVVEDTPPKATKNHKGIRGLMECDNGSSESINLAMSGLQRRKSRKVRLLSELLGNTKTSGGSNIRKEESALKKESVRGRKRKLLPENNYVSRILSTMGATSENASKSCDSDQGNSESTDSGFDRTPFKGKQRNRRFQVVDEFVPSLPCETSQEGIKEHDADPSKRSTPAHSLFTGNDSVPCPPGTQRTERKLSLPKKKTKKPVIDNGKSTVISFSNGIDGSQVNSHTGPSMNTVSQTRDLLNGKRVGGLFDNRLASDGYFRKYLSQVNDKPITSLHLQDNDYVRSRDAEPNCLRDFSSSSKSSSGGWLRTGVDIVDFRNNNHNTNRSSFSNLKLRYPPSSTEVADLSRVLQKDASGADRKGKTVMVQEHHGAPRSQSHDRKETTTEEQNNDDIPMEIVELMAKNQYERCLPDKEEDVSNKQPSQETAHKSKNALLIDLNETYDNGISLEDNNTSRPPKPCSSNARREEHFPMGRQQNSHDFFPISQPYVPSPFGIFPPTQENRASSIRFSGHNCQWLGNLPTVGNQNPSPSSFRVLRACDTCQSVPNQYREASHPIWPSSMIPPQSQYKPVSLNINQSTNPGTLSQASNNENTWNLNFVAANGKQKCGPNPEFSFGCKHAAGVSSSSSRPIDNFSSESSIPALHLLSLLDPRLRSTTPADQHGNTKFTKRHFPPANQSKEFIELQTGDSSKSAYSTKQIPFDLYSKRFTQEPSRKSFPITPPIGTSSLSFQNASWSPHHQEKKTKRKDTFAPVYNTHEKPVFASSNDQAKFQLLGASNSMMLPLKFHMTDKEKKQKRKAESCNNNASAGPVKNSSGPIVCSVNRNPADFTIPEPGNVYMLTGEHLKVRKRTTFKKKPAVCKQDAMKQTKKPVCPPTQNA
Take B1: the binding entry in assay [1] is “binds”.

B2: FVE/MSI4, full length, cLUC fusion (FVE-cLUC), O22607 1-507 (protein)
chain: MESDEAAAVSPQATTPSGGTGASGPKKRGRKPKTKEDSQTPSSQQQSDVKMKESGKKTQQSPSVDEKYSQWKGLVPILYDWLANHNLVWPSLSCRWGPQLEQATYKNRQRLYLSEQTDGSVPNTLVIANCEVVKPRVAAAEHISQFNEEARSPFVKKYKTIIHPGEVNRIRELPQNSKIVATHTDSPDVLIWDVETQPNRHAVLGAANSRPDLILTGHQDNAEFALAMCPTEPFVLSGGKDKSVVLWSIQDHITTIGTDSKSSGSIIKQTGEGTDKNESPTVGPRGVYHGHEDTVEDVAFSPTSAQEFCSVGDDSCLILWDARTGTNPVTKVEKAHDADLHCVDWNPHDDNLILTGSADNTVRLFDRRKLTANGVGSPIYKFEGHKAAVLCVQWSPDKSSVFGSSAEDGLLNIWDYDRVSKKSDRAAKSPAGLFFQHAGHRDKVVDFHWNASDPWTIVSVSDDCETTGGGGTLQIWRMSDLIYRPEEEVVAELEKFKSHVMTCASKP
Regarding B2, the binding result in assay [2] is “binds”.

B3: ULT1, full length, split-luciferase fusion (ULT1-nLUC and ULT1-cLUC) (protein, UniProt Q8GZA8 1-237)
chain: T1 sequence
With B3, the binding entry in assay [3] is listed as “binds”.

B4: CLF-mVenus (XVE:CLF-mVenus), full length (protein, UniProt P93831 1-902)
chain: T2 chain
On to B4, for which the binding entry in assay [4] is listed as “binds”.

B5: CURLY LEAF (CLF), full length, yeast two-hybrid fusion (protein, UniProt P93831 1-902)
chain: T2 chain
In the case of B5, the binding entry in assay [1] is “binds”.

B6: CLF, full length, split-luciferase fusion (CLF-nLUC and CLF-cLUC) (protein, UniProt P93831 1-902)
chain: T2 chain
B6: in assay [3], the binding entry was “binds”.
